From PMC9532426, “Autophagy induction promoted by m6A reader YTHDF3 through translation upregulation of FOXO3 mRNA” come the findings set out here.

Protein sequences, listed by entry. Tags and fused reporters are not part of them. Residues count along the entry.
UniProt P20029, residues 20-655: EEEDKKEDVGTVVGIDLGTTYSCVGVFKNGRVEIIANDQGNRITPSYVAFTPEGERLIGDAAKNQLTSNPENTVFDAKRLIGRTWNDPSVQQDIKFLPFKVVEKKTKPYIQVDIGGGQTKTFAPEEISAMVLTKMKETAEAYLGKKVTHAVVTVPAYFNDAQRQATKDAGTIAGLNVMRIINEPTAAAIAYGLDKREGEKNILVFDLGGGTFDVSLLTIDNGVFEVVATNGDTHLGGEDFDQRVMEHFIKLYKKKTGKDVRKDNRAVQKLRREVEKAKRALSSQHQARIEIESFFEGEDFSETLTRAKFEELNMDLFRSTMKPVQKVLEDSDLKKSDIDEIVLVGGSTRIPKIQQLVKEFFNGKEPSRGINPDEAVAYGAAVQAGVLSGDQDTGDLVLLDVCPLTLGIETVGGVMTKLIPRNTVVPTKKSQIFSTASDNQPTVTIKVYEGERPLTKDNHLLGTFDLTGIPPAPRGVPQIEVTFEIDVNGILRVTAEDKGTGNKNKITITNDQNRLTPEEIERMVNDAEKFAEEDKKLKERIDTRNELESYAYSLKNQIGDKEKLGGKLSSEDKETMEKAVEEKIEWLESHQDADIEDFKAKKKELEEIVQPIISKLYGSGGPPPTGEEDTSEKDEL

Test [1] deals with FLAG-tagged METTL3 (mouse) (UniProt Q8C3P7). Nature of the test: affinity purification with mass spectrometry; anti-FLAG immunoprecipitates from MEFs overexpressing FLAG-tagged METTL3, quantitative mass spectrometry; with or without nutrient starvation.
Test [2] addresses T1, YTHDF3 (mouse (endogenous in MEFs)) (UniProt Q8BYK6).
T1 sequence: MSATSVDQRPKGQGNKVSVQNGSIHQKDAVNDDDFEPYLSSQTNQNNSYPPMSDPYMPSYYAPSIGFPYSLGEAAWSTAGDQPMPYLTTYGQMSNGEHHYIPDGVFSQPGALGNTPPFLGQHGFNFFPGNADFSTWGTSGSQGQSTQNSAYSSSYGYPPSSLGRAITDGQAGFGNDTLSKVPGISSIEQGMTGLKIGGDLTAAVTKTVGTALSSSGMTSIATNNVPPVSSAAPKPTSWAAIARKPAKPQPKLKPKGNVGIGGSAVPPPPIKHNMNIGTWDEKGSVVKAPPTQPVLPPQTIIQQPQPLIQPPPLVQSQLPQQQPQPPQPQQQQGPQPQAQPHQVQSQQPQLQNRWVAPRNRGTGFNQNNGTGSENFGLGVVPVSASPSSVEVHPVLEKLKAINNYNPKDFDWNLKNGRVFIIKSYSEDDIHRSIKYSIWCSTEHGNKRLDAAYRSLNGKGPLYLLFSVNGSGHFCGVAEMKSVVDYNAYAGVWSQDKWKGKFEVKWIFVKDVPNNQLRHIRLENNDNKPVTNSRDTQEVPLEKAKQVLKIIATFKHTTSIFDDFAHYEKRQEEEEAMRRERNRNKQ
In words: affinity purification with mass spectrometry; anti-YTHDF3 antibody (sc-377119) crosslinked to Protein A/G Plus Agarose, MEF lysates under normal and nutrient-free conditions, overnight at 4 °C, LC-MS/MS; mouse IgG as control.

These are yes or no findings as the source states them, for the method shown. Binding seen in cells or lysates may run through a third protein. A yes stands for co-enrichment or nearness to the bait. Other partners may have been found.

For the molecule HSPA5 (from UniProt P20029 20-655), the binding result in test [1] is “binds”.

B1: FAM120A (protein, UniProt Q6A0A9 1-1112)
chain: MGVQGFQDYIEKHCPSAVVPVELQKLARGSLVGGGRQRPPQTPLRLLVDADNCLHRLYGGFYTDWVSGGQWNHMLGYLAALAKACFGGNIELFVFFNGALEKARLHEWVKRQGNERQTAQQIVSHVQNKGTPPPKVWFLPPVCMAHCIRLALIRFHVKVAQSIEDHHQEVIGFCRENGFHGLVAYDSDYALCNIPYYFSAHALKLSRNGKSLTTSQYLMHEVAKQLDLNPNRFPIFAALLGNHILPDEDLASFHWSLLGPEHPLASLKVRAHQLVLPPCDVVIKAVADYVRNIHDTSDLDAIAKDVFQHSQSRTDDKVIRFKRAVGYYSATSKPMPFHPPHYLARPNPFGMPGMVPPYVPPQMLNIPQTSLQAKPAVPQVPSPGGTPGQAPYPYSLSEPALTLDTSGKNLTEQNSYSNIPHEGKHTPLYERSSPINLAQSGSPNHVDSAYFPGSSTSSSSDNDEGGGGATNHISGNKIGWEKTGSHAEPLARGDPGDQVKVEGSSTASSGSQLAEGKGSHMGTVQPIPCLLSMPTRNHMDITTPPLPPVAPEVLRVAEHRHKKGLMYPYIFHILTKGEIKIAVSIEDEANKDLPPAALLYRPVRQYVYGVLFSLAESRKKTERLAFRKNRLPPEFSPLIIKEWAAYKGKSPQTPELVEALAFREWTCPNLKRLWLGKAVEDKNRRMRAFLACMRSDTPAMLNPANVPTHLMVLCCVLRYMVQWPGARILRRQELDAFLAQALSPKLYEPDQLQELKIDNLDPRGIQLSALFMSGVDMALFANDACGQPIPWEHCCPWMYFDGKLFQSKLLKASREKTPLIDLCDGQAEQAAKVEKMRQSILEGLSFSRQNHPLPFPPPPALPFYPASVYPRHFGPVPPSQGRGRGFAGVCGFGGHYGETVATGPYRAFRVTAASGHCGAFSGSDSSRTSKSQGGVQPIPSQGGKLEIAGTVVGHWAGSRRGRGGRGPFPLQVVSVGGPARGRPRGVISTPVIRTFGRGGRYYGRGYKSQGAIQGRPPYAASAEEVAKELKSKSGESKSSAVSLAENGVMAEEKPVPQLNGSTGDPRVPSHSESALNNDSKPCNTNPHLNALSTDSACRREAALEAAVLNKEE
Take B1: in test [2], the binding entry is “binds”.

B2: RBM3 (protein, UniProt O89086 1-153)
chain: MSSEEGKLFVGGLNFNTDEQALEDHFSSFGPISEVVVVKDRETQRSRGFGFITFTNPEHASDAMRAMNGESLDGRQIRVDHAGKSARGSRGGAFGGRGRSYSRGGGDQGYGSGRYDSRPGGYGYGYGRSRDYSGSQGGYDRYSGGNYRDNYDN
Take B2: in test [2], the binding entry is reported as “binds”.
